Results are given in words; binding and its absence hold for the method and conditions named. Some entries that bind do so weakly or less than the wild type.
How the values were obtained:
[1] = biological target: T1, human TSLP recombinant protein (human, UniProt Q969D9 29-159, biotinylated in the blocking and cell-binding assays (sites not given)); experiment: competition ELISA: antibody pre-incubated with 60 ng/mL biotinylated human TSLP, added to coated human TSLPR-Fc, SA-HRP, A450; blocked partner human TSLPR
[2] = biological target: T1, human TSLP recombinant protein; experiment: ELISA on coated human TSLP
[3] = biological target: T1, human TSLP recombinant protein; experiment: ELISA, human TSLP coated at 1 ug/mL, anti-human IgG Fc-HRP, A450
[4] = biological target: Cynomolgus macaques TSLP recombinant protein (Cynomolgus macaques); experiment: ELISA on coated cynomolgus TSLP
[5] = biological target: Cynomolgus macaques TSLP recombinant protein (Cynomolgus macaques); experiment: competition ELISA: antibody pre-incubated with 60 ng/mL biotinylated Cynomolgus macaques TSLP, added to coated Cynomolgus macaques TSLPR-Fc, SA-HRP, A450; blocked partner Cynomolgus macaques TSLPR
[6] = biological target: Cynomolgus macaques TSLP recombinant protein (Cynomolgus macaques); experiment: ELISA, Cynomolgus macaques TSLP coated at 1 ug/mL, anti-human IgG Fc-HRP, A450
[7] = biological target: Cynomolgus macaques TSLP recombinant protein (Cynomolgus macaques); experiment: SPR BIAcore T200
[8] = biological target: T1, human TSLP recombinant protein; experiment: SPR BIAcore T200
[9] = biological target: T1, human TSLP recombinant protein; experiment: flow cytometry blocking: antibody pre-incubated with biotinylated human TSLP, added to Ba/F3-hTSLPR-IL7Rα cells, SA-PE; blocked partner cell-surface human TSLPR

Amino acid sequences for entries named in this document (tags omitted). A change or cut given only in a name is not applied to a line headed by its entry.
UniProt Q969D9: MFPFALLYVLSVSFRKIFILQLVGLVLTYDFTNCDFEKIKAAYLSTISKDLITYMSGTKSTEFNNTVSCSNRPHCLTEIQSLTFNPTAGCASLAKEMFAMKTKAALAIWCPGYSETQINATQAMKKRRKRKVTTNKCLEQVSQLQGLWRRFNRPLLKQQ

binding [1]	binding [2]	binding [3]	binding [4]	binding [5]	binding [6]	binding [7]	binding [8]	binding [9]	Binder
binds	binds	binds	binds	binds	–	–	–	–	Ab10 (antibody, V domains shown, Humanized; also called h39G5VHv10/h39G5VKv1) VH: QVQLVQSGAEVKKPGSSVKVSCKASGYTFTDYWMHWVRQAPGQGLEWMGIIDPSDSDTSLNQKFQGRVTITADTSTSTAYMELSSLRSEDTAVYYCARSLDGYYDYWGQGTLVTVSS VL: DIQMTQSPSSLSASVGDRVTITCRASENIYSYLAWYQQKPGKAPKLLIYNARTLPEGVPSRFSGSGSGTDFTLTISSLQPEDFATYYCQHHYTTPWTFGQGTKVEIK
binds	binds	binds	binds	binds	binds	binds	binds	binds	Ab26 (antibody, V domains shown, Humanized; also called h39G5VHv10/h71G4VKv1; h39G5VHv10/h71G4VKv1 hIgG1) VH: QVQLVQSGAEVKKPGSSVKVSCKASGYTFTDYWMHWVRQAPGQGLEWMGIIDPSDSDTSLNQKFQGRVTITADTSTSTAYMELSSLRSEDTAVYYCARSLDGYYDYWGQGTLVTVSS VL: DIQMTQSPSSLSASVGDRVTITCRTSENIYSYLAWYQQKPGKAPKLLIYFAKTLTDGVPSRFSGSGSGTDFTLTISSLQPEDFATYYCQHHYGTPWTFGQGTKVEIK

Reference: patent US20230029835A1 (KEYMED BIOSCIENCES, published 2023)
